Data: the supplement of paper PMC8728848
The other results are listed elsewhere or left out.

Key:
Assay in all cases: glycan array binding signal (z-score within array); higher = stronger binding
Details in all cases: glycan notation: IUPAC condensed, linker removed
[1] = molecular target: Fuc(a1-2)Gal(b1-4)GlcNAc(b1-3)Gal(b1-4)GlcNAc(b1-2)Man(a1-3)[Fuc(a1-2)Gal(b1-4)GlcNAc(b1-3)Gal(b1-4)GlcNAc(b1-2)Man(a1-6)]Man(b1-4)GlcNAc(b1-4)GlcNAc
Summary of the method: (§1)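 Glycan array data were curated from 3228 arrays in the Consortium for Functional Glycomics database and kept only where the protein sequence was available. Glycan names were converted to IUPAC-condensed notation, and columns mapping to the same glycan were averaged. The binding signal is a within-array Z-score, averaged across arrays of the same protein sequence at different concentrations or buffers and across linkers. Negative Z-scores can be read as non-binding.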

[2] = molecular target: Fuc(a1-2)Gal(b1-4)GlcNAc(b1-3)Gal(b1-4)GlcNAc(b1-3)Gal(b1-4)GlcNAc
Summary of the method: as §1

[3] = molecular target: Fuc(a1-2)Gal(b1-4)GlcNAc(b1-3)GalNAc
Summary of the method: as §1

[4] = molecular target: Fuc(a1-2)Gal(b1-4)GlcNAc(b1-3)[Fuc(a1-2)Gal(b1-4)GlcNAc(b1-6)]GalNAc
Summary of the method: as §1

[5] = molecular target: Fuc(a1-2)Gal(b1-4)GlcNAc(b1-3)[Fuc(a1-3)[Gal(b1-4)]GlcNAc(b1-6)]Gal(b1-4)Glc
Summary of the method: as §1

[6] = molecular target: Fuc(a1-2)Gal(b1-4)GlcNAc(b1-6)GalNAc
Summary of the method: as §1

[7] = molecular target: Fuc(a1-2)Gal(b1-4)GlcNAc6S
Summary of the method: as §1

[8] = molecular target: Fuc(a1-2)Gal(b1-4)[Fuc(a1-3)]GlcNAc
Summary of the method: as §1

[9] = molecular target: Fuc(a1-2)Gal(b1-4)[Fuc(a1-3)]GlcNAc(b1-2)Man(a1-3)[Fuc(a1-2)Gal(b1-4)[Fuc(a1-3)]GlcNAc(b1-2)Man(a1-6)]Man(b1-4)GlcNAc(b1-4)[Fuc(a1-6)]GlcNAc
Summary of the method: as §1

[10] = molecular target: Fuc(a1-2)Gal(b1-4)[Fuc(a1-3)]GlcNAc(b1-2)[Fuc(a1-2)Gal(b1-4)[Fuc(a1-3)]GlcNAc(b1-4)]Man(a1-3)[Fuc(a1-2)Gal(b1-4)[Fuc(a1-3)]GlcNAc(b1-2)Man(a1-6)]Man(b1-4)GlcNAc(b1-4)GlcNAc
Summary of the method: as §1

[11] = molecular target: Fuc(a1-2)Gal(b1-4)[Fuc(a1-3)]GlcNAc(b1-3)Gal(b1-4)[Fuc(a1-3)]GlcNAc
Summary of the method: as §1

[12] = molecular target: Fuc(a1-2)Gal(b1-4)[Fuc(a1-3)]GlcNAc(b1-3)Gal(b1-4)[Fuc(a1-3)]GlcNAc(b1-3)Gal(b1-4)[Fuc(a1-3)]GlcNAc
Summary of the method: as §1

[13] = molecular target: Fuc(a1-2)Gal(b1-4)[Fuc(a1-3)]GlcNAc(b1-3)GalNAc
Summary of the method: as §1

[14] = molecular target: Fuc(a1-2)Gal(b1-4)[Fuc(a1-3)]GlcNAc(b1-3)[Neu5Ac(a2-6)Gal(b1-4)GlcNAc(b1-6)]Gal(b1-4)Glc
Summary of the method: as §1

[15] = molecular target: Fuc(a1-2)Gal3S(b1-4)GlcNAc
Summary of the method: as §1

[16] = molecular target: Fuc(a1-2)Gal6S(b1-3)GlcNAc
Summary of the method: as §1

[17] = molecular target: Fuc(a1-2)Gal6S(b1-3)GlcNAc6S
Summary of the method: as §1

Fuc(a1-2)Gal6S(b1-4)Glc = molecular target: Fuc(a1-2)Gal6S(b1-4)Glc
Summary of the method: as §1

[18] = molecular target: Fuc(a1-2)Gal6S(b1-4)Glc6S
Summary of the method: as §1

Fuc(a1-2)[Gal(a1-3)]Gal = molecular target: Fuc(a1-2)[Gal(a1-3)]Gal
Summary of the method: as §1

[19] = molecular target: Fuc(a1-2)[Gal(a1-3)]Gal(b1-3)GalNAc
Summary of the method: as §1

[20] = molecular target: Fuc(a1-2)[Gal(a1-3)]Gal(b1-3)GalNAc(b1-3)Gal(a1-4)Gal(b1-4)Glc
Summary of the method: as §1

[21] = molecular target: Fuc(a1-2)[Gal(a1-3)]Gal(b1-3)GlcNAc
Summary of the method: as §1

[22] = molecular target: Fuc(a1-2)[Gal(a1-3)]Gal(b1-3)GlcNAc(b1-2)Man(a1-3)[Fuc(a1-2)[Gal(a1-3)]Gal(b1-3)GlcNAc(b1-2)Man(a1-6)]Man(b1-4)GlcNAc(b1-4)GlcNAc
Summary of the method: as §1

[23] = molecular target: Fuc(a1-2)[Gal(a1-3)]Gal(b1-3)GlcNAc(b1-2)Man(a1-3)[Fuc(a1-2)[Gal(a1-3)]Gal(b1-3)GlcNAc(b1-2)Man(a1-6)]Man(b1-4)GlcNAc(b1-4)[Fuc(a1-6)]GlcNAc
Summary of the method: as §1

[24] = molecular target: Fuc(a1-2)[Gal(a1-3)]Gal(b1-3)GlcNAc(b1-3)GalNAc
Summary of the method: as §1

[25] = molecular target: Fuc(a1-2)[Gal(a1-3)]Gal(b1-3)GlcNAc(b1-6)GalNAc
Summary of the method: as §1

[26] = molecular target: Fuc(a1-2)[Gal(a1-3)]Gal(b1-4)Glc
Summary of the method: as §1

[27] = molecular target: Fuc(a1-2)[Gal(a1-3)]Gal(b1-4)GlcNAc
Summary of the method: as §1

[28] = molecular target: Fuc(a1-2)[Gal(a1-3)]Gal(b1-4)GlcNAc(b1-2)Man
Summary of the method: as §1

B1: BIp1-His (Cryptococcus neoformans) (protein)
chain: MFTKIFVALFAATAVLSAPVESAEKRITHTGRATFYSPSVGIGACGWQNTDEELVVALNAPQYALNADHNCGQSVRITNEQNGNQEIAKVVDLCPGCNDGDLDMSPALFGALNNNDFDQGVFPISWNFLPRDDTSSSN
glycan array binding signal (z-score) [1]: 1.43
glycan array binding signal (z-score) [2]: 0.398
glycan array binding signal (z-score) [3]: 0.809
glycan array binding signal (z-score) [4]: 0.738
glycan array binding signal (z-score) [5]: 0.792
glycan array binding signal (z-score) [6]: -0.477
glycan array binding signal (z-score) [7]: 0.204
glycan array binding signal (z-score) [8]: -0.388
glycan array binding signal (z-score) [9]: 0.101
glycan array binding signal (z-score) [10]: 0.32
glycan array binding signal (z-score) [11]: 0.314
glycan array binding signal (z-score) [12]: -0.224
glycan array binding signal (z-score) [13]: 0.112
glycan array binding signal (z-score) [14]: -0.389
glycan array binding signal (z-score) [15]: -0.089
glycan array binding signal (z-score) [16]: -0.555
glycan array binding signal (z-score) [17]: -0.124
glycan array binding signal (z-score) (Fuc(a1-2)Gal6S(b1-4)Glc): 1.11
glycan array binding signal (z-score) [18]: -0.846
glycan array binding signal (z-score) (Fuc(a1-2)[Gal(a1-3)]Gal): -0.04
glycan array binding signal (z-score) [19]: -0.496
glycan array binding signal (z-score) [20]: -0.651
glycan array binding signal (z-score) [21]: -0.182
glycan array binding signal (z-score) [22]: 0.152
glycan array binding signal (z-score) [23]: 0.135
glycan array binding signal (z-score) [24]: -0.664
glycan array binding signal (z-score) [25]: -0.487
glycan array binding signal (z-score) [26]: 0.482
glycan array binding signal (z-score) [27]: -0.529
glycan array binding signal (z-score) [28]: -0.382
